# Measurements reported in PubChem BioAssay AID1259425 (University of Nebraska Medical Center, 2018)
# Screen: 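Compare each knockdown with KSR1 silencing using changes in marker transcripts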 (primary screen)
# Cells: HCT116 human colon cancer cells
# Reagent: siRNA pool against human genes, 50 nM siRNA
# Measured: 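After 50 nM siRNA pool, branched-DNA assay measures six marker transcripts per well, minus blank, normalised to the geometric mean of two housekeeping transcripts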
# Reading the numbers: BNIP3L mRNA: higher = more BNIP3L transcript after knockdown; NDRG1 mRNA: higher = more NDRG1 transcript after knockdown
# The deposit covers about 14,000 reagents; shown is an unselected part. Reagents against one gene are numbered here. Not all columns of the deposit are shown. Not given: the time to read-out.
target,reagent no.,"BNIP3L mRNA, set 1","NDRG1 mRNA, set 1"
ZNF213,1,0.159,0.24
PLAC1,1,0.0857,0.258
BTN1A1,1,0.0997,0.169
HOXA9,1,0.143,0.144
DNAJC8,1,0.113,0.367
KCND2,1,0.0677,0.23
PAFAH1B2,1,0.256,0.233
VEPH1,1,0.118,0.158
MAGED1,1,0.169,0.376
SELENBP1,1,0.084,0.155
CYB5B,1,0.137,0.346

In a second layout: entries from further up
target	reagent no.	BNIP3L mRNA, set 1	NDRG1 mRNA, set 1
BTN1A1	1	0.0997	0.169
HOXA9	1	0.143	0.144

The results go on:
target,reagent no.,"BNIP3L mRNA, set 1","NDRG1 mRNA, set 1"
DRC4,1,0.0898,0.102
KRT9,1,0.135,0.183
TCHH,1,0.117,0.0985
PPP2R1A,1,0.0602,0.103
CDX4,1,0.163,0.181
GADD45G,1,0.114,0.237
ABITRAM,1,0.0798,0.111
TTPAL,1,0.102,0.354
MCPH1,1,0.137,0.216
IL2RB,1,0.0707,0.185
PPP1R3B,1,0.0806,0.224
MCRIP2,1,0.17,0.159
RXFP4,1,0.319,0.245
FUT1,1,0.0389,0.0703
CEBPG,1,0.0906,0.141
PRRC2A,1,0.318,0.299
LMNA,1,0.0954,0.3
EPM2A,1,0.0344,0.216
GLRA2,1,0.0483,0.411
MMP13,1,0.107,0.274
TSPAN9,1,0.0771,0.195
TSPAN9,2,0.107,0.0999
WNK2,1,0.0464,0.126
